{"source": "PubChem BioAssay AID1259425 (University of Nebraska Medical Center, 2018)", "assay": "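Find knockdowns that reproduce the gene expression pattern seen when KSR1 is lost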 (primary screen)", "system": "HCT116 human colon cancer cells", "reagent": "siRNA pool against human genes, 50 nM siRNA", "measurement": "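mRNA of six signature genes measured together by branched-DNA assay after 50 nM siRNA pool, blank removed, divided by geometric mean of two housekeeping genes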", "reading the numbers": "BNIP3L mRNA: higher = more BNIP3L transcript after knockdown", "note": "The whole screen tested about 14,000 reagents; shown is a part drawn at random. Further read-outs or replicates are left out here. Not stated in the record: the time to read-out."}
{"target":"BIN3","BNIP3L mRNA, set 1":0.116}
{"target":"APEH","BNIP3L mRNA, set 1":0.1}
{"target":"ZNF185","BNIP3L mRNA, set 1":0.197}
{"target":"PTGES3","BNIP3L mRNA, set 1":0.0851}
{"target":"SLCO3A1","BNIP3L mRNA, set 1":0.12}
{"target":"RHOG","BNIP3L mRNA, set 1":0.145}
{"target":"LILRB5","BNIP3L mRNA, set 1":0.064}
{"target":"LSM2","BNIP3L mRNA, set 1":0.167}
{"target":"CAPNS1","BNIP3L mRNA, set 1":0.11}
{"target":"CLIC6","BNIP3L mRNA, set 1":0.0943}
{"target":"MMP27","BNIP3L mRNA, set 1":0.101}
{"target":"SEMA6D","BNIP3L mRNA, set 1":0.124}
{"target":"FGFR3","BNIP3L mRNA, set 1":0.125}
{"target":"PPP2R2B","BNIP3L mRNA, set 1":0.0536}
{"target":"SALL3","BNIP3L mRNA, set 1":0.0754}
{"target":"LMF1","BNIP3L mRNA, set 1":0.0453}
{"target":"PFDN4","BNIP3L mRNA, set 1":0.0748}
{"target":"IL38","BNIP3L mRNA, set 1":0.193}
{"target":"TRNAU1AP","BNIP3L mRNA, set 1":0.0403}
{"target":"KPTN","BNIP3L mRNA, set 1":0.161}
{"target":"ST8SIA2","BNIP3L mRNA, set 1":0.143}
{"target":"CLPTM1","BNIP3L mRNA, set 1":0.109}
{"target":"SYTL1","BNIP3L mRNA, set 1":0.196}
{"target":"STIM2","BNIP3L mRNA, set 1":0.0586}
{"target":"RPA2","BNIP3L mRNA, set 1":0.085}
{"target":"SIAE","BNIP3L mRNA, set 1":0.156}
{"target":"FCGR2A","BNIP3L mRNA, set 1":0.118}
{"target":"AREG","BNIP3L mRNA, set 1":0.1}
{"target":"WASF1","BNIP3L mRNA, set 1":0.0531}
{"target":"METTL4","BNIP3L mRNA, set 1":0.0943}
{"target":"GTF2H1","BNIP3L mRNA, set 1":0.136}
{"target":"FBXW10","BNIP3L mRNA, set 1":0.0716}
{"target":"ICAM4","BNIP3L mRNA, set 1":0.223}
{"target":"SUSD2","BNIP3L mRNA, set 1":0.121}
{"target":"CBLC","BNIP3L mRNA, set 1":0.0469}
{"target":"DFFB","BNIP3L mRNA, set 1":0.107}
